Consider one molecule from patent US20190352341A1, “MODIFIED PEPTIDES AND THEIR USE FOR TREATING SYSTEMIC LUPUS ERYTHEMATOSUS” (IMMUPHARMA FRANCE SA, priority 2018, published 2019).

Numbered stars: 1 amine (or outer) side, 2 acyl side, 3 side chain; on linkers, the order of the positions; unused ones are H or OH. Square brackets hold non-standard residues; d marks the D form. Peptide text beside a SMILES is read from it. ξ: configuration not given here. X1 = CSCC[C@H](NC(=N)[C@H](Cc1c[nH]cn1)N[*:1])C(=O)[*:2]; pS = N[C@@H](COP(=O)(O)O)C(=O)O; Ile(3ξ) = CCC(C)[C@H](N)C(=O)O

For this series, the system named is MRL/lpr B cells. The experiment in a line: Cellular uptake of fluorescent P140 peptide in MRL/lpr B cells. The series is classed as cell-based, mouse.

As to `CCC(C)[C@H](NC(=O)[C@H](Cc1ccccc1)NC(=O)[C@H](C)NC(=O)[C@H](Cc1ccc(O)cc1)NC(=O)CNC(=O)[C@H](CCCNC(=N)N)NC(=O)[C@@H]1CCCN1C(=O)[C@H](CCCCN)NC(=O)CNC(=O)[C@H](COP(=O)(O)O)NC(=O)[C@H](CCCNC(=N)N)NC(=O)[C@H](CCCCN)NC(=O)[C@H](CO)NC(=O)[C@H](Cc1ccc(O)cc1)NC(=O)[C@@H](NC(=O)[C@H](CCSC)NC(=N)[C@H](Cc1c[nH]cn1)NC(=O)[C@@H](NC(=O)[C@@H](N)CCCNC(=N)N)C(C)CC)C(C)C)C(=O)N[C@@H](CCC(=O)O)C(=O)N[C@@H](Cc1ccc(O)cc1)C(=O)O` (some centres unmarked) [Compound P140] (H-R[Ile(3ξ)][X1]VYSKR[pS]GKPRGYAF[Ile(3ξ)]EY-OH), the “Cellular uptake, flow cytometry” value (MRL/lpr B cells, peptide in 10% trehalose compared with 5.4% mannitol) was “Much less cellular uptake”. Further, the “Entry into B cells, confocal microscopy” value (peptide in trehalose compared with mannitol) is “enters B cells much less”.
